In paper PMC10205598:
Results are given in words; binding and its absence hold for the method and conditions named. Binding seen in cells or lysates may run through a third protein. Some binding calls cover weakened binding; strength is not graded here.

Sequences of proteins named here, by UniProt entry; tags and fusion partners are left off.
UniProt P09405: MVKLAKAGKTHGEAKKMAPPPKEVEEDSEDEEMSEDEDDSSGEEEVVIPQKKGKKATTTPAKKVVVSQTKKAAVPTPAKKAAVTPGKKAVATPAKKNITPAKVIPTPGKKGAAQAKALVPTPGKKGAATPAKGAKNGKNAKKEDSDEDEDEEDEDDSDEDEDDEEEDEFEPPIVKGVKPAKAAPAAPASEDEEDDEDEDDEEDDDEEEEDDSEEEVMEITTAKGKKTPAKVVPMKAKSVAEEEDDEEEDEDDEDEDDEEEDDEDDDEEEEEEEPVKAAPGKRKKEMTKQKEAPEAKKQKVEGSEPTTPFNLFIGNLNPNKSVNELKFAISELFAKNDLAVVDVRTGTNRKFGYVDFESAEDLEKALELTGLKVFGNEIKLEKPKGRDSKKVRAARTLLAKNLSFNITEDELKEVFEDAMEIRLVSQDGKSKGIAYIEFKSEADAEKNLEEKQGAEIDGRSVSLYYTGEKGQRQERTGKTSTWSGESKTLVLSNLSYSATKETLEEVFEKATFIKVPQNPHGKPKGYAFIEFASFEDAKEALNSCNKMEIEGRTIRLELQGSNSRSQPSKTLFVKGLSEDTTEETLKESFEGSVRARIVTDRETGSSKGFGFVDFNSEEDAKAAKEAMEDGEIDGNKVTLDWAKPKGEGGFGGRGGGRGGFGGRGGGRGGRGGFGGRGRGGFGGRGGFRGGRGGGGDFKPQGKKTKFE
UniProt Q9UKV8: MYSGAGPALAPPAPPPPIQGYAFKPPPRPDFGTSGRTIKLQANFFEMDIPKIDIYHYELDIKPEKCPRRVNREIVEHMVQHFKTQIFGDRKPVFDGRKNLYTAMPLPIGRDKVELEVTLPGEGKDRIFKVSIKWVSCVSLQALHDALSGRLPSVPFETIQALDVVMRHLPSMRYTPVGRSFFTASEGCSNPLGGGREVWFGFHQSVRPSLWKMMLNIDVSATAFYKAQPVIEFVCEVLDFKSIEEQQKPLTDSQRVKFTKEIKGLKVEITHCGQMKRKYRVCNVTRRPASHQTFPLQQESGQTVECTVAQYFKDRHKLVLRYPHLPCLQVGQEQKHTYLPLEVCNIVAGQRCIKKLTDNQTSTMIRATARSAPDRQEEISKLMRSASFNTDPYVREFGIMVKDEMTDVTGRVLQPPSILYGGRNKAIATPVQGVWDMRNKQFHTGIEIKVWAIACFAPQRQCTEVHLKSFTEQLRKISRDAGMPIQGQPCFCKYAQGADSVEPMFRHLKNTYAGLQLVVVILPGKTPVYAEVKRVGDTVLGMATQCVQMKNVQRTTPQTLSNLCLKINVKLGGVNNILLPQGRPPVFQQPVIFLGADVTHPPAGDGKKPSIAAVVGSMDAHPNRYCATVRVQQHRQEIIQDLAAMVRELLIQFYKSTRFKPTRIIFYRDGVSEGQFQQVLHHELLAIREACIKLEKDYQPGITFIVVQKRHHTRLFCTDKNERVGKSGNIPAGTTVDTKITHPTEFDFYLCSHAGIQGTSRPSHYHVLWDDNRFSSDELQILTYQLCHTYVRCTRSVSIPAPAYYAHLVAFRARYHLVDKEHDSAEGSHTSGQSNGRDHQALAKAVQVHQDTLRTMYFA

Molecular target: endogenous Nucleolin (NCL) (mouse (endogenous in N2a)) (UniProt P09405)
Assay: co-IP; N2a cells transfected with MYCFAM172A and FLAGAGO2, endogenous NCL as bait; whole-cell extracts in 100 mM NaCl lysis buffer

binding: binds
Substance: full-length _(FLAG)AGO2 (from UniProt Q9UKV8 1-859)
